1 molecule from patent US20230242607A1 (EUTILEX, published 2023) can be followed below.

Results are given in words; binding and its absence hold for the method and conditions named. Some results given as binding are weak or reduced against the parent protein; the word gives no strength. Where a sequence is shown, tags or fusion partners need not be part of it.

This assay concerns the target T1, IL2-RB (UniProt P14784 27-239, limits assumed).
T1 construct: Bought recombinant protein (Sino); also called CD122; IL-2Rβ
T1 sequence (looked up): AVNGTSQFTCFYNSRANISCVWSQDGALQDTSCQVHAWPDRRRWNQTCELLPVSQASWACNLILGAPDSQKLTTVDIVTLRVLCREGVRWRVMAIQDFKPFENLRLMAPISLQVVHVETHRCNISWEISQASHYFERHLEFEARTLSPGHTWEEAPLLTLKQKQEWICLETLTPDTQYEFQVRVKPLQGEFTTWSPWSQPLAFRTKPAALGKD
The assay is described as follows: SPR, Biacore T200; IL-2-Fc on CM5 chip, receptor injected; 1:1 model. Background: SPR reads the build-up and loss of mass on a sensor chip optically.

B1: IL2_V4 Fc fusion protein (Fc fusion)
chain: APTSSSTKKTQLQLEHLLLDLQMILNGINNYKNPKLTAMLTKKFYMPKKATELKHLQCLEEELKPLEEVLNLAQSKNFHFDPRDVISNINVFVLELKGSETTFMCEYADETATIVEFLNRWITFCQSIISTLTGGGGSSNTKVDKRVEPKSCDKTHTCPPCPAPPVAGPSVFLFPPKPKDTLMISRTPEVTCVVVDVSHEDPEVQFNWYVDGVEVHNAKTKPREEQFNSTFRVVSVLTVVHQDWLNGKEYKCKVSNKGLPAPIEKTISKTKGQPREPQVYTLPPSREEMTKNQVSLTCLVKGFYPSDIAVEWESNGQPENNYKTTPPMLDSDGSFFLYSKLTVDKSRWQQGNVFSCSVMHEALHNHYTQKSLSLSPGK
For the molecule B1, the binding result is listed as “binds”.
